Data: publication PMC11190286
These are yes or no findings as the source states them, for the method shown. Binding seen in cells or lysates may run through a third protein. Some results given as binding are weak or reduced against the parent protein; the word gives no strength.

The chains behind the UniProt entries cited, without tags or fusion partners.
UniProt Q92794: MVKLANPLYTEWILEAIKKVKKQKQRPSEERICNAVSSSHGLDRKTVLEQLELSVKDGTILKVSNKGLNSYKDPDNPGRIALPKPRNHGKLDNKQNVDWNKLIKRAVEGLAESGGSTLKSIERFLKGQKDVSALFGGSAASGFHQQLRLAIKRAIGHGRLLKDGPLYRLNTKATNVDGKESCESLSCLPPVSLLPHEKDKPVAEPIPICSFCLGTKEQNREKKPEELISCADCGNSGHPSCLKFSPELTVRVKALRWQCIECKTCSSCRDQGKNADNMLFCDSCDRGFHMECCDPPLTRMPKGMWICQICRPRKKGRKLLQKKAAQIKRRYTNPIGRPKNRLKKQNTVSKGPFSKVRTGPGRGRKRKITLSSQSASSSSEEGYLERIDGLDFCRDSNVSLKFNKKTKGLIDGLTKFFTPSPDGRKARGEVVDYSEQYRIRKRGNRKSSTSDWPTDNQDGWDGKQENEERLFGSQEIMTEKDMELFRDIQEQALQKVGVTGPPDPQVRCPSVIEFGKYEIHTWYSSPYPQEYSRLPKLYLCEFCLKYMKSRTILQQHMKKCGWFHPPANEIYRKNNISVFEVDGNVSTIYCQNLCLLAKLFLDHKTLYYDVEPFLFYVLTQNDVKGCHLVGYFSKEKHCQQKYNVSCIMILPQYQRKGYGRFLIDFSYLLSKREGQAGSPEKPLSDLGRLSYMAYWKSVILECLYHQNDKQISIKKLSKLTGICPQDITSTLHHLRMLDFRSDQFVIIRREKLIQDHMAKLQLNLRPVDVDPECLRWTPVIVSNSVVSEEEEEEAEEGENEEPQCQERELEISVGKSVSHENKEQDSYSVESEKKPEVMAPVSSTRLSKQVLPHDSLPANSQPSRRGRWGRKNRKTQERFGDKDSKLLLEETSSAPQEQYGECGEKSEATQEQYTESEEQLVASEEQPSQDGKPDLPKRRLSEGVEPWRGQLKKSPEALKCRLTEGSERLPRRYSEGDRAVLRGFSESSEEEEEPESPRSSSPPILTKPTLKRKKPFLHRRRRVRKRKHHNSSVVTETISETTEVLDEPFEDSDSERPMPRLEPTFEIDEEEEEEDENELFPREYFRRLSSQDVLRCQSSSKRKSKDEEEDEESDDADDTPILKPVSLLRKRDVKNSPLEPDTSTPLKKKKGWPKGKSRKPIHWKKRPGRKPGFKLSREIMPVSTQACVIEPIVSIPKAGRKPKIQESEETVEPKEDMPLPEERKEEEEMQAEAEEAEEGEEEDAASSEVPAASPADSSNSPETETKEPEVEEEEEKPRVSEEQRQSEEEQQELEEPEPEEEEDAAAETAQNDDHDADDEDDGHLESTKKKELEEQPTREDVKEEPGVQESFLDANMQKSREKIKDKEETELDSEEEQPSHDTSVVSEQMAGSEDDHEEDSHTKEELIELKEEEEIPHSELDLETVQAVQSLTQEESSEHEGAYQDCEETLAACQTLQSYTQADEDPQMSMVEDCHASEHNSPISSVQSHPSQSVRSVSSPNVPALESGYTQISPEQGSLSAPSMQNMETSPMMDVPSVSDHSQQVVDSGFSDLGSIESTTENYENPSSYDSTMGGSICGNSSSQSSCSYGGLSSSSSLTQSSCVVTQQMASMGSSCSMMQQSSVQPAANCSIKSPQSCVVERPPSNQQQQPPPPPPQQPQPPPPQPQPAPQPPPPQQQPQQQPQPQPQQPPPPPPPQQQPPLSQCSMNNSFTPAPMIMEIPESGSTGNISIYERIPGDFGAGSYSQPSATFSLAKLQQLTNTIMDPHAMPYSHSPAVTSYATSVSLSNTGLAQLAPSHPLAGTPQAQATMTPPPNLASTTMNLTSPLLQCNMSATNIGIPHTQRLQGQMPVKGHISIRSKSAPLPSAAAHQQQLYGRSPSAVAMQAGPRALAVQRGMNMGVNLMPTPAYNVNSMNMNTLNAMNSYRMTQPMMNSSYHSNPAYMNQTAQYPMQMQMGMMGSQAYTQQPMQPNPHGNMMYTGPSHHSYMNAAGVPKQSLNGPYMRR
UniProt P40763: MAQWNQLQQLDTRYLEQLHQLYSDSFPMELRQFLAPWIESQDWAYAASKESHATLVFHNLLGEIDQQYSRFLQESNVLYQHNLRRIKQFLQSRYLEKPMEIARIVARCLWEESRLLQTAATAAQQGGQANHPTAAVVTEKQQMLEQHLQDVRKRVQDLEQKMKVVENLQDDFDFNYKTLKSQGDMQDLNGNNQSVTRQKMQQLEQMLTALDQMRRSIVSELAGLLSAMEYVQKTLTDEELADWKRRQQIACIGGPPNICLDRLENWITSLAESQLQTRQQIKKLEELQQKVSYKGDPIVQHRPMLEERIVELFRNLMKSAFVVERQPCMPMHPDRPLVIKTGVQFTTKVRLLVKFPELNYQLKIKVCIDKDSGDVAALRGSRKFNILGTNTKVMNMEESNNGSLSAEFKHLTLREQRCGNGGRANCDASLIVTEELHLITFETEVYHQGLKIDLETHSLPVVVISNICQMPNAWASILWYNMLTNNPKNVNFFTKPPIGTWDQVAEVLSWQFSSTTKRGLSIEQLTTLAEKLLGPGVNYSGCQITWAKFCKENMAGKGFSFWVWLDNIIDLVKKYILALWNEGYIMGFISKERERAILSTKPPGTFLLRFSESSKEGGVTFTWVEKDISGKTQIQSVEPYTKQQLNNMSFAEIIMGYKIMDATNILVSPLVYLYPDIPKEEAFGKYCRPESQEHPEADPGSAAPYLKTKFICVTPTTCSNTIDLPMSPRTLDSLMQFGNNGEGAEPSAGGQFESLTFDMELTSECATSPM

Legend:
[1] = target: T1, citrine-PRMT2 (in HEK293 cells) (UniProt P55345); assay: co-IP; HEK293 cells co-transfected with Myc-MOZ and citrine-PRMT2, 24 h; lysis in 10 mM Tris/HCl pH 7.5, 150 mM NaCl, 0.5 mM EDTA, 0.5% NP40; GFP-Trap magnetic beads 1 h at 4 °C (Myc-Trap also named)
T1 sequence: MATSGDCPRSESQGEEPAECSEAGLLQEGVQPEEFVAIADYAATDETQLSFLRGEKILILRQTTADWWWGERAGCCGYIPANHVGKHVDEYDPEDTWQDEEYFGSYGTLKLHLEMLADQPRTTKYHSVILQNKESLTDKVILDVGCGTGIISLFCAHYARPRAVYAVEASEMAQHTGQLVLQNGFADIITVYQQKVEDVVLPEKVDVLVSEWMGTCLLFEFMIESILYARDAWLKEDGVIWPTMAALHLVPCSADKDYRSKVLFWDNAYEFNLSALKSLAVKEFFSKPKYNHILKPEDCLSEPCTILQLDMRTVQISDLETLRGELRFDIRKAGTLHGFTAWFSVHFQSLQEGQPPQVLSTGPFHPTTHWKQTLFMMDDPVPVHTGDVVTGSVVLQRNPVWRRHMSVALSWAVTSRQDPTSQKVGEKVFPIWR

[2] = target: T2, citrine-PRMT2 (overexpressed in HL-60 cells) (UniProt P55345); assay: co-IP; HL-60 cells overexpressing citrine-PRMT2; lysis in 10 mM Tris/HCl pH 7.5, 150 mM NaCl, 0.5 mM EDTA, 0.5% NP40; GFP-Trap magnetic beads 1 h at 4 °C
T2 sequence: T1 sequence

binding [1]	binding [2]	Substance
binds	–	Myc-MOZ (from UniProt Q92794 1-2004)
–	no binding	STAT3 (from UniProt P40763 1-770)
